In publication PMC12040169 (PLOS Biology, 2025):
The other results are listed elsewhere or left out.

Tested on: T1, CTL2-GFP (C. trachomatis L2/434/Bu, GFP-expressing)
T1 construct: L2/434/Bu, GFP-expressing
Parameters: species or system HeLa; Intracellular C. trachomatis growth in HeLa cells, bulk GFP fluorescence relative to DMSO
Settings: bulk GFP, single well; 28.5 h, 10 µM; inhibitor

Row | Compound | % of control remaining [%]
1 | COc1ccc(C2(CN3CCC(NC(C)=O)CC3)CC2)cc1 [CBK285357] | 131.812
2 | COc1ccc2[nH]cc(CCNC(=O)Cc3ccsc3)c2c1 [CBK116205] | 110.729
3 | Cc1ccc(-c2ccc(N3CCCC(C(=O)O)C3)nn2)cc1C (stereo not shown) [CBK300513] | 131.839
4 | O=S(=O)(Nc1ccc2c(ccn2Cc2ccccc2)c1)c1cc(C(F)(F)F)cc(C(F)(F)F)c1 [CBK159540] | 132.876
5 | O=C1NC2(CCNCC2)Oc2ccc(-c3cccnc3)cc21 [CBK086611] | 132.068
6 | Cc1sc2nc(C(C)Nc3ccc4[nH]c(=O)[nH]c4c3)[nH]c(=O)c2c1C (stereo not shown) [CBK297915] | 110.356
7 | Cc1ccc(S(=O)(=O)NC[C@H]2O[C@@H](CC(=O)N3CCc4ccccc43)[C@H](O)[C@@H]2O)cc1 [CBK288917] | 117.204
8 | CC(C(=O)Nc1ccc2c(c1)OCO2)N(c1ccc(Cl)cc1)S(C)(=O)=O (stereo not shown) [CBK268595] | 135.242
9 | N#CC1=C(N)Oc2[nH]nc(-c3ccc4ccccc4c3)c2C1c1cn(CC(N)=O)nc1-c1ccccc1 (stereo not shown) [CBK266624] | 87.1656
10 | CC1(CNC(=O)c2cn3cc(Cl)ccc3n2)COC1 [CBK281748] | 124.87
11 | CC(C)CN1CCCN(S(=O)(=O)c2ccc(C(F)(F)F)cc2Cl)CC1 [CBK062943] | 105.833
12 | CC(C)(C)OC(=O)N1CCC[C@@H](C(=O)c2cccs2)C1 [CBK284310] | 130.083
13 | O=C(O)CCCNS(=O)(=O)/C=C/c1ccccc1 [CBK287170] | 131.295
14 | COc1ccccc1C(=O)Nc1ccc([C@@H](O)[C@H]2COCC(=O)N2)cc1 [CBK289688] | 159.703
15 | c1csc(COc2nccnc2-c2cc3ccccc3s2)c1 [CBK106786] | 100.855
16 | CN(C)c1ccccc1-c1cc(N2CCN(S(=O)(=O)c3ccc(Cl)cc3)CC2)ncn1 [CBK037039] | 129.653
17 | CCc1nc2ccc(C(=O)N3CCN(C(=O)c4ccco4)CC3)cn2c1N(C)Cc1ccncc1 [CBK145635] | 112.887
18 | Oc1ccc2nc(N[C@H]3CC4CCC3C4)sc2c1Cl (stereo partly shown) [CBK024348G] | 112.654
19 | Nc1nc(-c2ccc3c(c2)CCC(=O)N3)cs1 [CBK086133] | 167.141
20 | Cc1nn(C)c(C(=O)Nc2sc3c(c2C#N)CCC(C)C3)c1Br (stereo not shown) [CBK304212] | 136.976
21 | Cc1cc(OC(C)C(=O)Nc2ccccc2C(=O)N2CCCCC2)ccc1Cl (stereo not shown) [CBK269696] | 92.3088
22 | COc1cc([C@@]23CC[C@@H](NC(=O)Nc4cccc(Cl)c4)C[C@@H]2N(C)CC3)cc(OC)c1OC [CBK039212] | 107.282
23 | CC(NCCCN(C)C)=C1C(=O)c2ccccc2C1=O [CBK262674] | 122.954
24 | N#CCCN(C(=O)NCc1cccnc1)C1CCCCC1 [CBK156355] | 205.283
25 | CCOC(=O)c1[nH]c2ccccc2c1NS(=O)(=O)c1ccc(Br)cc1 [CBK047409] | 55.9226
26 | CCOc1cccc(/C=N\NC(=O)C2COc3cc4ccccc4cc3O2)c1O (stereo not shown) [CBK262846] | 66.7273
27 | Cc1nn(C)c(Sc2ccccc2)c1[N+](=O)[O-] [CBK002937] | 106.124

3 entries drawn at random from those above:
Row | Compound | % of control remaining [%]
7 | Cc1ccc(S(=O)(=O)NC[C@H]2O[C@@H](CC(=O)N3CCc4ccccc43)[C@H](O)[C@@H]2O)cc1 [CBK288917] | 117.204
13 | O=C(O)CCCNS(=O)(=O)/C=C/c1ccccc1 [CBK287170] | 131.295
5 | O=C1NC2(CCNCC2)Oc2ccc(-c3cccnc3)cc21 [CBK086611] | 132.068

Carrying on.

Row | Compound | % of control remaining [%]
28 | O=C(NCC(CO)Cc1ccsc1)N1CCN(c2ccncc2)CC1 (stereo not shown) [CBK306929] | 94.4195
29 | CCN(CC)C(=O)CNS(=O)(=O)Cc1ccccc1[N+](=O)[O-] [CBK034504] | 95.4422
30 | Cc1nn(Cc2ccccn2)c(=O)n2cccc12 [CBK283849] | 119.904
31 | CC(=O)Nc1nc(OCC(F)(F)F)cnc1-c1ccc2c(c1)OCO2 [CBK145427] | 102.966
32 | COc1ccc(S(=O)(=O)NCCN2CCOCC2)cc1Br [CBK269838] | 109.567
33 | CC(C)CC(NC(=O)c1cccnc1)c1nnc2n1CCNCC2 (stereo not shown) [CBK307149] | 127.225
34 | O=C1NN=C(CSCCO)Oc2ccccc21 [CBK006771] | 110.75
35 | COCc1cccc(Nc2ncnc3c2cnn3CCO)c1 [CBK306214] | 128.927
36 | C(=C\c1nccnc1OCc1cccs1)/c1ccccc1 [CBK106883] | 109.281
37 | CC(=O)c1ccc(S(=O)(=O)N2CCCCC2C)cc1 (stereo not shown) [CBK069211] | 127.586
38 | CC1CCc2c(sc3ncnc(SC(C)C(=O)OC4CCCCC4)c23)C1 (stereo not shown) [CBK265050] | 100
39 | CCOc1ccc(CN(C)C(=O)Cn2nc(C(=O)O)c3ccccc3c2=O)cc1 [CBK297492] | 130.28
40 | COC(=O)c1ccc2c(c1)[n+](CCO)c(C)n2CCO [CBK262443C] | 120.727
41 | CC1CCc2nc3ccccc3c(C(=O)N(C)Cc3cnn(C)c3)c2C1 (stereo not shown) [CBK305749] | 138.298
42 | CC(C)NC(=O)Cn1cnc2c1c(=O)n(C)c(=O)n2C [CBK133257] | 110.377
43 | COc1ccc(Oc2nccnc2N2CCN(Cc3ccc([N+](=O)[O-])cc3)CC2)cc1OC [CBK083046T] | 75.4216
44 | CCN(CC)S(=O)(=O)c1ccc(C)c(NS(=O)(=O)c2cc(C(=O)O)n(C)c2)c1 [CBK297782] | 149.283
45 | Clc1cc2nc(OCCCc3ccncc3)c(N3CCCC3)nc2cc1Cl [CBK115774] | 104.345
46 | COc1ccc(C(=O)N2CCC3(CCCN(C(=O)c4cccnc4)C3)C2)cc1OC (stereo not shown) [CBK131668] | 116.762
47 | CCN(CC)CCCNC(=O)N1CCCC(C(=O)N(CC)CC)C1 (stereo not shown) [CBK156149] | 101.758
48 | Cc1cc(OCC(=O)N2CCNC(=O)C2)c2c(C)c(C)c(=O)oc2c1 [CBK307624] | 111.335
49 | Cc1csc(C(Cc2ccsc2)NC(=O)C2CCOC2)n1 (stereo not shown) [CBK285150] | 117.836
50 | COc1cccc2sc(NC(=O)CN3CCOCC3)nc12 [CBK149281] | 112.905
51 | O=C(C1C2CCCCC21)N1CCC(c2nnc3n2CCCCC3)CC1 (stereo not shown) [CBK283351] | 133.686
52 | O=C(CN1CCN(Cc2ccccc2)CC1)Nc1cccc(Cl)c1 [CBK267850] | 102.919
53 | Cc1nn(CC(=O)N2CCCCCC2)c(=O)c2cc3sccc3n12 [CBK284084] | 124.448
54 | CN(CCCC(=O)Nc1nnc[nH]1)S(=O)(=O)c1ccccc1 [CBK267380] | 135.4

A different layout for some results above:
Cc1nn(C)c(Sc2ccccc2)c1[N+](=O)[O-] [CBK002937]
  % of control remaining [%]: 106.124
O=C(NCC(CO)Cc1ccsc1)N1CCN(c2ccncc2)CC1 (stereo not shown) [CBK306929]
  % of control remaining [%]: 94.4195
CCN(CC)C(=O)CNS(=O)(=O)Cc1ccccc1[N+](=O)[O-] [CBK034504]
  % of control remaining [%]: 95.4422

Further results

Row | Compound | % of control remaining [%]
55 | COc1ccc([C@@]23CC[C@@H](NC(=O)Nc4cccc(C#N)c4)C[C@@H]2N(C)CC3)cc1OC [CBK036448T] | 111.437
56 | Cc1noc2c1[C@H]1[C@H](O)[C@H](O)C[C@H]1C1(CCC1)N2 [CBK303266] | 98.2656
57 | NCc1ccc(CN(Cc2cnc(-c3ccccc3)[nH]2)C(=O)Nc2ccc3c(c2)OCO3)cc1 [CBK046158C] | 122.959
58 | O=C(NCc1cccc(C(F)(F)F)c1)N1CCN(CCN2CCOCC2)CC1 [CBK155671] | 112.41
59 | Cc1cccc(C(=O)NNC(=O)COc2cccc3ccccc23)c1O [CBK262993] | 122.09
60 | c1ccc(C(NCc2cnc(-c3ncccn3)s2)C2CCC2)cc1 (stereo not shown) [CBK304013] | 135.202
61 | COc1ccc(OC(C)(C)C(=O)N2CCCC(c3ccc(Nc4ncccn4)cn3)C2)cc1 (stereo not shown) [CBK285970] | 94.6479
62 | CCN1CCN(c2cc3c(cc2F)c(=O)c(C(=O)NCCOC)cn3C2CC2)CC1 [CBK300529] | 3.302
63 | CCc1ccc(OC(C)c2nnc(SCC(=O)N3c4ccccc4Sc4ccccc43)n2C)cc1 (stereo not shown) [CBK268058] | 126.606
64 | Fc1ccccc1Oc1nnnn1-c1ccccc1 [CBK002526] | 96.2539
65 | COc1ccccc1OC(=O)c1ccccc1Cl [CBK090164] | 160.413
66 | CCCOc1ccc(-c2nnn(CC(=O)OCC)n2)cc1 [CBK068817] | 100
67 | O=C(NCc1ccccc1)c1ccco1 [CBK086713] | 116.163
68 | Cc1noc(C)c1CN1CCN(CC(CC(=O)Nc2ccccc2)C(=O)O)CC1 (stereo not shown) [CBK286858] | 130.409
69 | CCCn1nnc(NC(=O)COc2ccc3ccccc3c2)n1 [CBK265923] | 164.762
70 | O=C(CCc1ccc(=O)[nH]n1)N1CCCCC1c1nc2cc(F)ccc2[nH]1 (stereo not shown) [CBK291107] | 110.912
71 | O=S(=O)(Nc1ccccc1N1CCCCC1)c1ccc(Cl)cc1 [CBK077063] | 81.1938
72 | Cn1cc2c(n1)[C@H]1CN(C(=O)c3cc(C(F)(F)F)n(C)n3)C[C@H]1C2 [CBK283399] | 127.349
73 | CCOC(=O)CNc1ccc(C(F)(F)F)cc1 [CBK057732] | 164.302
74 | COc1ccc(C)cc1OCCO [CBK001975] | 89.6661
75 | COc1cccc(C(O)CN2CCC3(CC2)CC(O)c2cc(Cl)c(C)cc2O3)c1 (stereo not shown) [CBK286342] | 95.8873
76 | NS(=O)(=O)c1ccc(C(=O)Nc2cccc3cc[nH]c23)cc1 [CBK160094] | 106.897
77 | CC(C)(C)C(=O)NC(N(Cc1ccccc1)Cc1ccccc1)C(Cl)(Cl)Cl (stereo not shown) [CBK261023] | 120.833
78 | O=C(Nc1ccccc1C(=O)NCCCc1nc2ccccc2[nH]1)c1cccs1 [CBK296641] | 140.298
79 | O=[N+]([O-])c1cc(Nc2ncnc3ccccc23)cc(Oc2ccccc2)c1 [CBK293928] | 104.302
